Test results taken from PubChem BioAssay AID2662 (National Center for Advancing Translational Sciences (NCATS), 2010).
Among all 290,000 compounds or so, about 110 (0.038%) were called active. Inconclusive results, whose numbers are uncertain, are shown with a selection of clear calls. Calls come from the whole dose curve; as a rule, active = well fitted inhibition curve with a large enough effect in the polarisation, with a control signal flat (not every such curve was filed as active); inconclusive = small, poorly fitted or top-dose-only effect, or effect the other way, or a change in a side signal; inactive = no such curve, though single readings can be large or run the other way; the % refers to the polarisation. Potencies beside an inconclusive call are fits to weak or partial responses and may not hold up. A note “side channel” means that the fit belongs to a control or component signal, not to the main read-out.
Potency is the fitted concentration of half-maximal effect.

By UniProt entry, the sequences of proteins in these tests, tags left out.
UniProt Q03164, whole entry, looked up: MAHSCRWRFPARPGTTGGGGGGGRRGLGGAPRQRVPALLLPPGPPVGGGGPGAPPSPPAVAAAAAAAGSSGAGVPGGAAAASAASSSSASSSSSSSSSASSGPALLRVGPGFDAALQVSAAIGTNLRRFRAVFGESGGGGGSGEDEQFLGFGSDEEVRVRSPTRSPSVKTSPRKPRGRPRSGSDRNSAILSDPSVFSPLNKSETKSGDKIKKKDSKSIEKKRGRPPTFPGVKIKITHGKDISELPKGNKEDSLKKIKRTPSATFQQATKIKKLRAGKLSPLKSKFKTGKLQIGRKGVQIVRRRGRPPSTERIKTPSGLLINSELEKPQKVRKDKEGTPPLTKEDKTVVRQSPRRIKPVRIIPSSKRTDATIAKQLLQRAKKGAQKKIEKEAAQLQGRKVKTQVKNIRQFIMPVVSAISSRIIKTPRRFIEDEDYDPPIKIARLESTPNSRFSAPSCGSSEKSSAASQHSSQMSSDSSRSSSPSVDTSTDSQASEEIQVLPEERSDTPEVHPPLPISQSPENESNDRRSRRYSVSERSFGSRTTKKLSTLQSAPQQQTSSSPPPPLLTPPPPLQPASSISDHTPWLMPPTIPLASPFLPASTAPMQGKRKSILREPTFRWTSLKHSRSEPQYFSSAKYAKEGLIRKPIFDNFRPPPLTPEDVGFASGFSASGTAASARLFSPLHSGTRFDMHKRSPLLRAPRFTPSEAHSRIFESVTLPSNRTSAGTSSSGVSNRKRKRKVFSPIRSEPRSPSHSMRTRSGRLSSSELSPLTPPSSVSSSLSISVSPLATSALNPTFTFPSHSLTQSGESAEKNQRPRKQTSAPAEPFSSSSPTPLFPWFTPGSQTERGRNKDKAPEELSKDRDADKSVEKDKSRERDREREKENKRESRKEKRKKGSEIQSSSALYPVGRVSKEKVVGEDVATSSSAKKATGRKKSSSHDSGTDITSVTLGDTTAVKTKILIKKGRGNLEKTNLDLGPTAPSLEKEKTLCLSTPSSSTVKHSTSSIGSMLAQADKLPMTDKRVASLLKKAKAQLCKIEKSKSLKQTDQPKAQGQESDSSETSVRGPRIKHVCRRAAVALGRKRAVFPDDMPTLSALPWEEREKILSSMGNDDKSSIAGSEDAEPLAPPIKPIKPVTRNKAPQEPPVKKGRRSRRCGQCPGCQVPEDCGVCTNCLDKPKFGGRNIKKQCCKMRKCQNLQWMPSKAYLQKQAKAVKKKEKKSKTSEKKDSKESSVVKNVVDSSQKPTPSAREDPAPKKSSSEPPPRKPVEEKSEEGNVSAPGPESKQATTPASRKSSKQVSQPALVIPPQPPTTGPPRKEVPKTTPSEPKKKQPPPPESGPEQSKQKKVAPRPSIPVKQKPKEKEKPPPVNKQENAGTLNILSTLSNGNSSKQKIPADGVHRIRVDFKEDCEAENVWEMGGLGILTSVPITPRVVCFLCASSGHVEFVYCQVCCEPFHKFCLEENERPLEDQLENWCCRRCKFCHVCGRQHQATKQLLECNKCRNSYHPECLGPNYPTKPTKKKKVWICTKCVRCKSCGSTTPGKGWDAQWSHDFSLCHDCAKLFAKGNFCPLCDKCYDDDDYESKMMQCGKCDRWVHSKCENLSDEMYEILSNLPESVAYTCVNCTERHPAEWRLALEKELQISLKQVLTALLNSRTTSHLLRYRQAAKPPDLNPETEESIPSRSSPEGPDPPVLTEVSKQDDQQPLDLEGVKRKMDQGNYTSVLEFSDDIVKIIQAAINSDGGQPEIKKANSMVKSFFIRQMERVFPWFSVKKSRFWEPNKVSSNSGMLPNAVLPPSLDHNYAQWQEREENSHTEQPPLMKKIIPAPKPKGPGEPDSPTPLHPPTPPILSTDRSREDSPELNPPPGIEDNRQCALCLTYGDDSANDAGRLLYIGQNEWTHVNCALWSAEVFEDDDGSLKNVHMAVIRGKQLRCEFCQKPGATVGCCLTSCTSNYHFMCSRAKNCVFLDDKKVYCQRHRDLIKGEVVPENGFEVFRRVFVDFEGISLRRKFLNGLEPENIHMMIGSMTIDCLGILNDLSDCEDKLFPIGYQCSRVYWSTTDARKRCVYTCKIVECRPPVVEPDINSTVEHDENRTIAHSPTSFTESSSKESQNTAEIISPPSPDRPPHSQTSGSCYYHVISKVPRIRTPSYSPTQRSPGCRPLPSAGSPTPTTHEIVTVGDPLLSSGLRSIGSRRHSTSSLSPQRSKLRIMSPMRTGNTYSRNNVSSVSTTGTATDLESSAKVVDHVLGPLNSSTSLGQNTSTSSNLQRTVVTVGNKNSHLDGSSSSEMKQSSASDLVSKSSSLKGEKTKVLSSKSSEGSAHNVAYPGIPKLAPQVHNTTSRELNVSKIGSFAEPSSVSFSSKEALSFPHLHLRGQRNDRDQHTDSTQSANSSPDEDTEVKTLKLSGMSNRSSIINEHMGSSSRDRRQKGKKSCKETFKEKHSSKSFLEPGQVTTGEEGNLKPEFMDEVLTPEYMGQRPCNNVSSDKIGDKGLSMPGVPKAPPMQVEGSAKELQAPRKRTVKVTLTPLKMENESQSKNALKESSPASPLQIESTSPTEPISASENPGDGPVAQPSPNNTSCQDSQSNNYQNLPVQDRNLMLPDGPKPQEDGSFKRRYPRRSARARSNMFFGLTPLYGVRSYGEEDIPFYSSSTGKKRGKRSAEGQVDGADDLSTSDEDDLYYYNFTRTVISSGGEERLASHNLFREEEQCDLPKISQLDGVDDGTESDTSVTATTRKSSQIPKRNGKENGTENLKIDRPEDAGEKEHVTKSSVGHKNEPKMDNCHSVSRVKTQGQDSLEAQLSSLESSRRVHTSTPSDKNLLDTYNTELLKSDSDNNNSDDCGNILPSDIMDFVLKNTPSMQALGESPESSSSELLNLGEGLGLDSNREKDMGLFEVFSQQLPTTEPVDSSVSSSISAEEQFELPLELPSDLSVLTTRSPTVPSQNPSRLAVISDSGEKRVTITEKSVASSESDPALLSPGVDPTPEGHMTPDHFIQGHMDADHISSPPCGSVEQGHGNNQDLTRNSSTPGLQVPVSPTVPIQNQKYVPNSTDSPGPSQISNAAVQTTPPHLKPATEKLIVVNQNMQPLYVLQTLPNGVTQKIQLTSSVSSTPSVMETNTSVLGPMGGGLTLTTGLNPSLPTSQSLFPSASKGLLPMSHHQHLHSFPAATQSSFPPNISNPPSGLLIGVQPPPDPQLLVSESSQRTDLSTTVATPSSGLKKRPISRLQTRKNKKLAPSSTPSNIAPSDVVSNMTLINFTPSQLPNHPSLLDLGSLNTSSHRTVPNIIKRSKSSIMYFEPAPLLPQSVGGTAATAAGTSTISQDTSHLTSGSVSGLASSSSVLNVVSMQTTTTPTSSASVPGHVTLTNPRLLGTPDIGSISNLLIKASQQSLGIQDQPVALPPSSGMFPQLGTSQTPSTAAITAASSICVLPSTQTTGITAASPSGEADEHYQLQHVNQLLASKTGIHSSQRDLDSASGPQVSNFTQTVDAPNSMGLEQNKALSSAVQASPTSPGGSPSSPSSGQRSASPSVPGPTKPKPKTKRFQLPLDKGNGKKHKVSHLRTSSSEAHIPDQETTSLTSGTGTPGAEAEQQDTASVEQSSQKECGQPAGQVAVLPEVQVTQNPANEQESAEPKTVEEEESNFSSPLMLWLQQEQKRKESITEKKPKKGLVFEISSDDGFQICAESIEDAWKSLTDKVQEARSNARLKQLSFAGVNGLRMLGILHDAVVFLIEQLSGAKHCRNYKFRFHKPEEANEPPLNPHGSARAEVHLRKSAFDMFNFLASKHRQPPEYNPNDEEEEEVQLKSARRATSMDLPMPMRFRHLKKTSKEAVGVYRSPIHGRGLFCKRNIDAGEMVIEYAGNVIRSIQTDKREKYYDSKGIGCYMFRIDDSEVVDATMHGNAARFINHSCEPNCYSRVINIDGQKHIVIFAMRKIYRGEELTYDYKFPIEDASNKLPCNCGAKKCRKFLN

Each compound was assayed against Histone-lysine N-methyltransferase 2A (Homo sapiens) (UniProt Q03164) (assay: qHTS Fluorescence Polarization Assay for Inhibitors of MLL CXXC domain - DNA interaction). Settings: MLL-CXXC / FITC-HOXA9 DNA fluorescence polarization; series mostly up to 115 µM.
Procedure, shortened: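 Purified MLL-CXXC (added from a 7 uM solution) was preincubated 5 min at ambient with pinned compounds in 50 mM Tris-HCl pH 7.5, 50 mM NaCl, 1 mM DTT, 0.05% BSA. Fluorescein-labeled HOX-A9 DNA (50 nM solution) followed, 30 min, then polarization read.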
For `CCCCCCNC(=O)C(C#N)c1nc2ccccc2nc1N1CCCC1` (stereo not drawn), the Potency was inconclusive: 31.6 µM [fluorescent, side channel, partial curve]. For `C/C(=N\Nc1nc(C(C)(C)C)cs1)c1ccccc1`, the Potency was inconclusive: 3.16 µM [quencher, side channel, full curve]. For `CCCCn1c(=O)nc2n(-c3ccccc3C)c3ccccc3cc-2c1=O`, the Potency was “inactive”. In the case of `O=C(Nc1nccs1)c1cc(Cl)ccc1[N+](=O)[O-]`, the Potency is reported as inconclusive: 63.1 µM [inhibitor, single point]. In the case of `O=C(/C=C/Nc1ccccc1Oc1ccccc1)c1ccco1`, the Potency is reported as inconclusive: 35.5 µM [fluorescent, side channel, partial curve]. In the case of `COc1ccc(C2=CC(c3ccco3)n3ncnc3N2)cc1` (stereo not drawn), the Potency is reported as inconclusive: 31.6 µM [fluorescent, side channel, partial curve]. With `COc1ccc(C)cc1N(CC(=O)NC1CCCC1)C(=O)Cn1nnc(-c2ccc(C)o2)n1` the Potency was “inactive”. With `O=C(NCc1ccccn1)C(=O)NN=C1CCCCCCC1` the Potency was inconclusive: 63.1 µM [fluorescent, side channel, single point]. In the case of `O=C(/C=C/c1cccs1)Nc1scc(-c2ccccc2)c1C(=O)O`, the Potency is reported as inconclusive: 31.6 µM [inhibitor, single point]. `CCOC(=O)C1CCCc2c1[nH]c1c(C(N)=O)cccc21` (stereo not drawn) was tested, and the Potency was “inactive”. In the case of `N#Cc1ccc2c(c1)nc1ccccn12`, the Potency is reported as “inactive”. With `Cc1ccc(C)c(NC(=O)CCC(=O)N/N=C2/CC(=O)CC(C)(C)C2)c1` the Potency was inconclusive: 35.5 µM [inhibitor, partial curve, poor fit]. `Cc1cc(=O)n(-c2ccc3ccccc3n2)[nH]1` was tested, and the Potency was inconclusive: 35.5 µM [inhibitor, single point]. For `Cc1cnc(C(=O)N2CCCC(C(=O)c3ccc(C(F)(F)F)cc3)C2)cn1` (stereo not drawn), the Potency was inconclusive: 50.1 µM [fluorescent, side channel, single point]. With `Cc1cccc(NC(=O)CSCC(=O)Nc2cc(Cl)ccc2N2CCN(C)CC2)c1` the Potency was inconclusive: 14.1 µM [fluorescent, side channel, single point]. `Cc1ccc(-n2nc3ccc(NC(=O)c4cccc([N+](=O)[O-])c4C)cc3n2)cc1` was tested, and the Potency was inconclusive: 3.55 µM [fluorescent, side channel, partial curve]. For `Cc1cc(C)c(S(=O)(=O)N2CCOC2CNC(=O)C(=O)NCc2ccccn2)c(C)c1` (stereo not drawn), the Potency was inconclusive: 14.1 µM [quencher, side channel, single point]. In the case of `Cc1ccc(/C=C2\Oc3c(ccc(O)c3CN3CCN(CCO)CC3)C2=O)cc1`, the Potency is reported as inconclusive: 31.6 µM [fluorescent, side channel, partial curve]. In the case of `Cc1ccc(N=Cc2c(O)cc(C)oc2=O)c(C)c1`, the Potency is reported as inconclusive: 3.16 µM [fluorescent, side channel, full curve]. `Cc1nonc1NC(=O)CSc1nc2ccccc2cc1C#N` was tested, and the Potency was inconclusive: 35.5 µM [fluorescent, side channel, partial curve]. `COc1ccc(-n2c3c(c(=O)[nH]c2=O)C(C(F)(F)F)(C(F)(F)F)N=C(CC(C)C)N3)cc1` was tested, and the Potency was “inactive”. With `Cc1cc(C(=O)Nc2ccc(C)c(C)c2)n(-c2ccccc2)n1` the Potency was inconclusive: 12.6 µM [fluorescent, side channel, single point]. With `CC(C)(C)c1ccc(C(=O)N/C(=C\c2cccc([N+](=O)[O-])c2)C(=O)Nc2cccc(C(=O)O)c2)cc1` the Potency was inconclusive: 44.7 µM [inhibitor, partial curve]. For `COCCn1c(N)c(C(=O)OCc2ccccc2)c2nc3ccccc3nc21`, the Potency was “inactive”. In the case of `Cn1c(CCNC(=O)c2ccco2)nc2cc(NS(=O)(=O)c3ccc(Cl)cc3)ccc21`, the Potency is reported as “inactive”. In the case of `O=C(Nc1ccc(N2CCOCC2)cc1)Nc1ccc2nc(-c3ccco3)c(-c3ccco3)nc2c1`, the Potency is reported as “inactive”. With `C/C(=N/Nc1ccccc1[N+](=O)[O-])c1ccc([N+](=O)[O-])cc1` the Potency was inconclusive: 89.1 µM [fluorescent, side channel, single point]. With `CCC1CCC(N2CCN(c3ccc(F)cc3)CC2)CC1` (stereo not drawn) the Potency was “inactive”. With `O=C(c1ccco1)N1N=C(c2ccc3nccnc3c2)CC1c1ccccc1` (stereo not drawn) the Potency was inconclusive: 35.5 µM [fluorescent, side channel, partial curve]. `COC1=C/C(=C/c2c(N)n3nc(CC(=O)N4CCCCC4)sc3nc2=O)C=CC1=O` was tested, and the Potency was inconclusive: 70.8 µM [fluorescent, side channel, single point]. In the case of `Cc1nc(Nc2nc3ccccc3o2)nc(C)c1C(=O)Nc1ccc(F)cc1`, the Potency is reported as inconclusive: 1.12 µM [inhibitor, partial curve, poor fit]. For `COc1cc2c(cc1OC)C(C)N(C(=O)CCNC(=O)c1ccccc1)CC2` (stereo not drawn), the Potency was inconclusive: 39.8 µM [quencher, side channel, single point]. `O=C(CCl)N(c1ccccc1)c1ccccc1` was tested, and the Potency was inconclusive: 56.2 µM [inhibitor, single point]. For `COc1ccc2c(c1)C(=NN)c1cc(OC)ccc1-2`, the Potency was inconclusive: 70.8 µM [quencher, side channel, single point]. `COc1ccc(CCn2c(=N)c(C(=O)NC3CCCCC3)cc3c(=O)n4ccccc4nc32)cc1` was tested, and the Potency was inconclusive: 15.8 µM [quencher, side channel, full curve, poor fit]. In the case of `CCCCCNC(=O)C(C#N)c1nc2ccccc2nc1N1CCCC1` (stereo not drawn), the Potency is reported as inconclusive: 20 µM [fluorescent, side channel, partial curve]. For `O=S(=O)(NCCc1ccc(Cl)cc1)c1cccc2cccnc12`, the Potency was inconclusive: 14.1 µM [fluorescent, side channel, single point]. In the case of `Cc1cc(SCC(=O)c2cc(C)n(C)c2C)nc2ccccc12`, the Potency is reported as inconclusive: 17.8 µM [fluorescent, side channel, partial curve, poor fit].
